Taken from: PubChem BioAssay AID1671195 (Yale University, 2021)
Purpose: 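Regulators of LDL receptor activity judged by labelled LDL uptake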 (primary screen). Cells: human Huh7 hepatoma cells. Reagent: siRNA pool against human genes, 18 nM. Duration: about 2 to 2.5 days of knockdown, then 8 h LDL uptake. Conditions: DiI-labelled LDL at 30 µg/ml for 8 h, in lipoprotein-deficient serum medium. Measured: 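Per-cell DiI-LDL intensity by automated imaging; well means scaled to the plate median and given as a robust z-score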. Reading the numbers: robust z-score: higher = more LDL uptake after knockdown. Call rule: 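Active when two or more replicates show a robust z-score above 2 or below -2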.
Shown is a random part of about 22,000 reagents. Of all reagents, about 1,510 (6.9%) got an active call. 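Active includes knockdowns raising or lowering LDL uptake; positive z-scores mean more uptake, negative mean less.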

| gene | robust z-score, replicate 1 | robust z-score, replicate 2 | robust z-score, replicate 3 | outcome |
| --- | --- | --- | --- | --- |
| LOC388453 (retired record) | 2.47 | 1.14 | 0.237 | inactive |
| DCLRE1C | -0.86 | -1.16 | -1.25 | inactive |
| LOC441626 (retired record) | 2.35 | 1.6 | 1.24 | inactive |
| LINC01257 | 2.93 | 4.76 | 5.05 | active |
| GIMAP8 | -0.182 | 0.867 | 0.000544 | inactive |
| CELA2B | 0.933 | -1.93 | 1.51 | inactive |
| KIT | -0.517 | -1.11 | -0.713 | inactive |
| REDIC1 | 0.209 | 0.0633 | 0.273 | inactive |
| CD5 | 0.595 | 0.492 | 0.742 | inactive |
| DPP9 | 2.24 | 1.91 | 1.78 | active |
| ZNF729 | 0.536 | 0.651 | 1.28 | inactive |
| MLLT6 | 2.33 | 4.19 | 2.9 | active |
| CCDC120 | -0.301 | -0.503 | -0.203 | inactive |
| ACBD5 | 0.949 | 1.24 | 1.17 | inactive |
| GSTM2 | -0.863 | -0.0123 | -1 | inactive |
| RAB40C | 0.547 | -0.99 | -0.507 | inactive |
| LINC00642 | -0.411 | -0.667 | -0.706 | inactive |
| TCERG1 | -1.33 | -1.29 | -1.62 | inactive |
| GJA9 | -0.117 | -0.229 | -0.197 | inactive |
| LINC01548 | -0.181 | -0.406 | -0.433 | inactive |
| DOP1A | 1.53 | 0.257 | 0.7 | inactive |
| LOC440071 (retired record) | 0.147 | 0.905 | 0.155 | inactive |

Entries above marked active, once more:
| gene | robust z-score, replicate 1 | robust z-score, replicate 2 | robust z-score, replicate 3 | outcome |
| --- | --- | --- | --- | --- |
| LINC01257 | 2.93 | 4.76 | 5.05 | active |
| DPP9 | 2.24 | 1.91 | 1.78 | active |
| MLLT6 | 2.33 | 4.19 | 2.9 | active |

Further entries follow:
| gene | robust z-score, replicate 1 | robust z-score, replicate 2 | robust z-score, replicate 3 | outcome |
| --- | --- | --- | --- | --- |
| EIF4G3 | -0.881 | -1.41 | -2.31 | inactive |
| GIMAP6 | -2.57 | -2.26 | -1.96 | active |
| GAA | 2.64 | 1.74 | 2.6 | active |
| SLC13A3 | -1.25 | -1.56 | -1.13 | inactive |
| OTOP2 | 2.27 | 0.367 | 0.0367 | inactive |
| CIC | 0.517 | -0.8 | -0.68 | inactive |
| SLC16A6P1 | -1.15 | -1.08 | -0.849 | inactive |
| CACNG1 | 0.259 | -0.126 | -0.0177 | inactive |
| SAP30BP | 2.32 | 0.0782 | 1.35 | inactive |
| FAM81A | 0.476 | 0.023 | 1.39 | inactive |
| TNFRSF11B | 0.356 | 0.545 | -0.0128 | inactive |
| CLK1 | 1.52 | 0.69 | 1.32 | inactive |
| RNF40 | -0.18 | -1.04 | -0.873 | inactive |
| GAMTP1 | 0.0518 | -0.278 | -0.371 | inactive |
| PDCL | 0.45 | -1.5 | -1.3 | inactive |
| SUCLG2 | -0.384 | -0.153 | -0.526 | inactive |
| SLC34A1 | -0.196 | -1.04 | 0.0216 | inactive |
| LOC390529 (retired record) | -1.42 | -1.63 | -1.65 | inactive |
| ATF7IP | 1.58 | -0.162 | -0.554 | inactive |
| RFPL2 | -0.497 | -0.647 | 0.124 | inactive |
| YBEY | -0.276 | -0.674 | 0.431 | inactive |
| LOC440133 (retired record) | 0.664 | 0.16 | 0.594 | inactive |
| RBM6 | -0.207 | 0.679 | -0.124 | inactive |
| SERPINB9P1 | -0.667 | -0.617 | -0.921 | inactive |
| IDH3G | -1.26 | -1.51 | -1.17 | inactive |
| FREM1 | 0.362 | 1.69 | 0.891 | inactive |
| NCAN | 0.737 | 1.24 | 1.18 | inactive |
| LOC440850 (retired record) | 0.0894 | 0.158 | -0.00993 | inactive |
| ARR3 | -0.434 | -0.0464 | -0.419 | inactive |
| COX6A2 | -0.62 | -0.746 | -0.364 | inactive |
| TRIM53CP | 0.393 | -0.193 | -0.0784 | inactive |
| ZNF354C | 0.00406 | 0.848 | 0.0461 | inactive |
| ZDHHC19 | -0.0789 | 0.972 | 0.551 | inactive |
| SLC66A3 | 2.75 | 2.61 | 3.42 | active |
| CTSC | 1.96 | 0.84 | 1.25 | inactive |
| TMEM252 | 1.18 | 1.47 | 2.04 | inactive |
| NBPF8 | 0.0992 | -0.168 | -0.447 | inactive |
| KLHL30-AS1 | -0.624 | -0.678 | -0.714 | inactive |
| LRRIQ1 | -0.00695 | -0.192 | 0.195 | inactive |
| HMGN5 | 3.45 | 3.14 | 2.06 | active |
| PGK2 | -0.025 | 1.31 | 0.813 | inactive |
| EPHA1 | 1.34 | 0.394 | 0.398 | inactive |
| FRZB | -0.779 | -1.93 | -1.22 | inactive |
| PRR11 | 0.188 | 1.44 | -0.737 | inactive |
| PTOV1 | 0.877 | 0.435 | 0.704 | inactive |
| COL27A1 | 0.419 | 0.438 | 0.244 | inactive |
